Data taken from article PMC9321951, “Thiol redox switches regulate the oligomeric state of cyanobacterial Rre1, RpaA and RpaB response regulators” (Febs Letters, 2022).
These are yes or no findings as the source states them, for the method shown. Where a sequence is shown, tags or fusion partners need not be part of it.

How the values were obtained:
[1] = target: Response Regulator 1 (Rre1), full-length, MBP-tagged (Synechocystis sp. PCC 6803) (UniProt P72781); assay: SEC; Rre1, RpaA or RppA reduced with 2 mM DTT; Superdex S200 10/300GL Increase; 100 mM HEPES pH 8.0, 100 mM NaCl, 2 mM DTT; both purified
[2] = target: Response Regulator 1 (Rre1), full-length, MBP-tagged (Synechocystis sp. PCC 6803) (UniProt P72781); assay: non-reducing urea-SDS/PAGE; 2 mM DTT, 30 min, room temperature, added to air-oxidised Rre1, RpaA, RpaB or to diamide-oxidised, desalted RppA; non-reducing SDS-6 M urea-8% PAGE; both purified
[3] = target: Response Regulator 1 (Rre1), full-length, MBP-tagged (Synechocystis sp. PCC 6803) (UniProt P72781); assay: non-reducing urea-SDS/PAGE; protein as purified from E. coli incubated with 5 mM TrxA and 0.1 mM DTT; non-reducing urea-SDS/PAGE, Coomassie; both purified

B1: Response Regulator 1 (Rre1), full-length, MBP-tagged (natural protein, Synechocystis sp. PCC 6803, UniProt P72781 1-231, looked up)
chain: MAEPISLLLVDDEPGVRESVQAFLEDSGDFKVDLAANATEAWDYLQHHLPALVISDIMMPQVDGYQFLQKLREDARFQSLPVVFLTARGMTGDRIQGYQTGCDAFLSKPFDPDELEAIVRNLLARQQASSDAGSESAKLQEIYQEIRALKEQIGQPSGIHTTPSPIKLDFTPREQSVLDLVSQGLMNKEIAAQLKTSVRNVEKYVSRLFTKTGTNSRTELVRFALQHGLTE
notes: Rre1 (response regulator 1), Synechocystis sp; Cloned KpnI/XhoI into pETG-41A; theoretical mass of the MBP-tagged monomer printed as 75 kDa
**Q.** How did the binding [1] turn out when B1 was run?
**A.** no binding (condition: with 2 mM DTT)

**Q.** What about the binding [2] of the same binder?
**A.** no binding (condition: with 2 mM DTT)

**Q.** And the binding [3]?
**A.** no binding (condition: with 5 mM TrxA and 0.1 mM DTT)
